Source: the supplement of paper PMC10032668
This is one part of the list. The list holds hits alone, and they repeat only in part.

Amino acid sequences for entries named in this document (tags omitted).
CHMP2B, Q9UQN3, UniProt Q9UQN3, whole entry: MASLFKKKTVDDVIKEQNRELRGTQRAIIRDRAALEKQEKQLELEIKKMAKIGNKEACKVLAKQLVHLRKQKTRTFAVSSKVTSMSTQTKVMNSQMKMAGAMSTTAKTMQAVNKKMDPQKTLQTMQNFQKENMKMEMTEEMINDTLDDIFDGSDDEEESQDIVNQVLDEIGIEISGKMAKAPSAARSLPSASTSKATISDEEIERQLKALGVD
HIST1H1D, P16402, UniProt P16402, whole entry: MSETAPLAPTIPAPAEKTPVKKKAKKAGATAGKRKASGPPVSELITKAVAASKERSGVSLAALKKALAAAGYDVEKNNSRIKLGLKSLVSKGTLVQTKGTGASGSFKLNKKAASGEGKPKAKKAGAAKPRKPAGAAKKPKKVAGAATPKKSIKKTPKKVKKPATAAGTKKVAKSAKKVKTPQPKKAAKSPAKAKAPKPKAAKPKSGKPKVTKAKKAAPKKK
KHDRBS1, Q07666, UniProt Q07666, whole entry: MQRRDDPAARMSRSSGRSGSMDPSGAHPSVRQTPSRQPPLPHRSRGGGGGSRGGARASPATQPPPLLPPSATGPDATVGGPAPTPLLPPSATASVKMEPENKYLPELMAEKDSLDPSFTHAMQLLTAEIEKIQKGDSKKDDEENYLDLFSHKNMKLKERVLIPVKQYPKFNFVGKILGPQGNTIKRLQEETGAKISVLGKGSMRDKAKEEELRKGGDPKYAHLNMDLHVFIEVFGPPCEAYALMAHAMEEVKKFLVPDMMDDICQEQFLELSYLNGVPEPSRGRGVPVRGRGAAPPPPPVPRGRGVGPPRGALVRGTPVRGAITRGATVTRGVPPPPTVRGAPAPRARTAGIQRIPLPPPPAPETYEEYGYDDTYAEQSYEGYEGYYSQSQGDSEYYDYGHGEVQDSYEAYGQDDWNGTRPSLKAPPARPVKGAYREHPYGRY
TOMM20, Q15388, UniProt Q15388, whole entry: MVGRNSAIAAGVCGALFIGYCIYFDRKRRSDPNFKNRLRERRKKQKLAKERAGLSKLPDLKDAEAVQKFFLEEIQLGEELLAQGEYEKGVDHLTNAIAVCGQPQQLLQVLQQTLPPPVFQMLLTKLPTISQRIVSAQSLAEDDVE
EIF2B4, Q9UI10, UniProt Q9UI10, whole entry: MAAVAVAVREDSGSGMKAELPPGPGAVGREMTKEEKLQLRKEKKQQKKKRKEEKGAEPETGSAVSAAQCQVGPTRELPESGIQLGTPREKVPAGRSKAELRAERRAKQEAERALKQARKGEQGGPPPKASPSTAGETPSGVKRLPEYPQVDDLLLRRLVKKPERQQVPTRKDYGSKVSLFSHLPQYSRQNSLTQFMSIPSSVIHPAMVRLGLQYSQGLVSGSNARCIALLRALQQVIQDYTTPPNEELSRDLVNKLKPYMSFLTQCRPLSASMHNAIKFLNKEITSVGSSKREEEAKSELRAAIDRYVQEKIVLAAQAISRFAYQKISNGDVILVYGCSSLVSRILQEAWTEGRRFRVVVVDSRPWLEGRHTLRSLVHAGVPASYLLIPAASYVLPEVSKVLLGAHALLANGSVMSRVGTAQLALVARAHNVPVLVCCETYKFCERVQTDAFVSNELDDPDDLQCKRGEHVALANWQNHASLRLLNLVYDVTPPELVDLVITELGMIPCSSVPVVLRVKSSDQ
FXR2, P51116, UniProt P51116, whole entry: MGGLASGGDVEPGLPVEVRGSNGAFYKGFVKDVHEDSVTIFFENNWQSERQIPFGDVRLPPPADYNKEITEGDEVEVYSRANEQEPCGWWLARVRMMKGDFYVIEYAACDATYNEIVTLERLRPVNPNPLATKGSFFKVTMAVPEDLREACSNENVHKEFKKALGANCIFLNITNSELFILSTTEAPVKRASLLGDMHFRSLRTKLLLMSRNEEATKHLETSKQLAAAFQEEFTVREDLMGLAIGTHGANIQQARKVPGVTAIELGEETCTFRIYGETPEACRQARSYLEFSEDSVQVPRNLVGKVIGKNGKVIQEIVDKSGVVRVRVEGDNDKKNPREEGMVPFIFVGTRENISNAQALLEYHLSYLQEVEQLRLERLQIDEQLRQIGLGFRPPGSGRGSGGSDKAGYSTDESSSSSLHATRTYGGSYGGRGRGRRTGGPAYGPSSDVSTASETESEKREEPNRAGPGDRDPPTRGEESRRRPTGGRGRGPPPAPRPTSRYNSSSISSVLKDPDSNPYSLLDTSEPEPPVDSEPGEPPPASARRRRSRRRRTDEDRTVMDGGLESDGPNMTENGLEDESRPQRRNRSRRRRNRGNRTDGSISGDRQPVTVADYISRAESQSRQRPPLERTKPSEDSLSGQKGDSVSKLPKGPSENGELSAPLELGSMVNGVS
NDUFC2, O95298, UniProt O95298, whole entry: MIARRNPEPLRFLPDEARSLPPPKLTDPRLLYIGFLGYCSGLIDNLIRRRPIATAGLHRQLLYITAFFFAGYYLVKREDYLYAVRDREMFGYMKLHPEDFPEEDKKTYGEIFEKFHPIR
EIF1, P41567, UniProt P41567, whole entry: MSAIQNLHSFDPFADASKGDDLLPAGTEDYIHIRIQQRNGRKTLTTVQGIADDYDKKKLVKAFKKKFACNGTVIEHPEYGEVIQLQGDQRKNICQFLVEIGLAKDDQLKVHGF
TMEM97, Q5BJF2, UniProt Q5BJF2, whole entry: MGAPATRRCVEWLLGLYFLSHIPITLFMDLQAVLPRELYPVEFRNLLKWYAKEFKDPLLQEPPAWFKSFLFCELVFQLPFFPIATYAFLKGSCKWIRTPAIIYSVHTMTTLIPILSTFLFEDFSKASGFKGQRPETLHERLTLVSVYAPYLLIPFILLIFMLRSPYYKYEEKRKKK

Tests used:
Experiment in all cases: PRISMA enrichment of interactor (LFQ) in peptide spot vs all other peptide spots (log2 fold change); higher = stronger / more specific binding of the interactor to the peptide
[1] = biological target: ALKBH5, Q6P6C2
Protocol: (§1)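 PRISMA: 15-aa overlapping tiles (offset 8 aa) of 60 microproteins, plus SOS1/GLUT1 control peptides, were spot-synthesized on cellulose membranes in triplicate. Membranes were incubated with benzonase-treated HEK293T lysate, and bound proteins were identified by LC-MS/MS with LFQ. Enrichment is the log2 fold change of each protein in one spot versus all other spots. Only interactors passing the significance cutoff are listed.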

[2] = biological target: C11orf98, E9PRG8
Protocol: as §1

[3] = biological target: C19orf53, Q9UNZ5
Protocol: as §1

[4] = biological target: CHMP2B, Q9UQN3
Protocol: as §1

[5] = biological target: CHTOP, Q9Y3Y2
Protocol: as §1

[6] = biological target: CLIP2, Q9UDT6
Protocol: as §1

[7] = biological target: DNAJC19, Q96DA6
Protocol: as §1

[8] = biological target: ECHS1, P30084
Protocol: as §1

[9] = biological target: EDF1, O60869
Protocol: as §1

[10] = biological target: FAM207A, Q9NSI2
Protocol: as §1

[11] = biological target: HIST1H1D, P16402
Protocol: as §1

[12] = biological target: HMGB1, P09429
Protocol: as §1

[13] = biological target: HMGB3, O15347
Protocol: as §1

[14] = biological target: KHDRBS1, Q07666
Protocol: as §1

[15] = biological target: POLDIP3, Q9BY77
Protocol: as §1

[16] = biological target: PRRC2A, P48634
Protocol: as §1

[17] = biological target: RBM42, Q9BTD8
Protocol: as §1

[18] = biological target: RPS19BP1, Q86WX3
Protocol: as §1

[19] = biological target: RRP1B, Q14684
Protocol: as §1

[20] = biological target: SDAD1, Q9NVU7
Protocol: as §1

[21] = biological target: TFAM, Q00059
Protocol: as §1

[22] = biological target: TOMM20, Q15388
Protocol: as §1

[23] = biological target: ZNF706, Q9Y5V0
Protocol: as §1

[24] = biological target: hCG_2014768
Protocol: as §1

[25] = biological target: ALG6, Q9Y672
Protocol: as §1

[26] = biological target: BSDC1, Q9NW68
Protocol: as §1

[27] = biological target: CASP14, P31944
Protocol: as §1

[28] = biological target: CLSPN, Q9HAW4
Protocol: as §1

[29] = biological target: EIF2B4, Q9UI10
Protocol: as §1

[30] = biological target: FXR2, P51116
Protocol: as §1

[31] = biological target: GEMIN5, Q8TEQ6
Protocol: as §1

[32] = biological target: MRPL34, Q9BQ48
Protocol: as §1

[33] = biological target: NDUFC2, O95298
Protocol: as §1

[34] = biological target: NSDHL, Q15738
Protocol: as §1

[35] = biological target: NUP98, P52948
Protocol: as §1

[36] = biological target: RSRC2, Q7L4I2
Protocol: as §1

[37] = biological target: TBCD, Q9BTW9
Protocol: as §1

[38] = biological target: TRIR, Q9BQ61
Protocol: as §1

[39] = biological target: UFL1, O94874
Protocol: as §1

[40] = biological target: ZC3HAV1, Q7Z2W4
Protocol: as §1

[41] = biological target: EIF1, P41567
Protocol: as §1

[42] = biological target: TMEM97, Q5BJF2
Protocol: as §1

[43] = biological target: VPS4A, Q9UN37
Protocol: as §1

Binder: QFIMELLYWLLEGGD
- PRISMA enrichment of interactor (log2) [1]: 3.98
- PRISMA enrichment of interactor (log2) [2]: 4.64
- PRISMA enrichment of interactor (log2) [3]: 5.09
- PRISMA enrichment of interactor (log2) [4]: 4.04
- PRISMA enrichment of interactor (log2) [5]: 3.74
- PRISMA enrichment of interactor (log2) [6]: 4.29
- PRISMA enrichment of interactor (log2) [7]: 3.69
- PRISMA enrichment of interactor (log2) [8]: 4.16
- PRISMA enrichment of interactor (log2) [9]: 4.07
- PRISMA enrichment of interactor (log2) [10]: 4.08
- PRISMA enrichment of interactor (log2) [11]: 3.78
- PRISMA enrichment of interactor (log2) [12]: 6.03
- PRISMA enrichment of interactor (log2) [13]: 5.45
- PRISMA enrichment of interactor (log2) [14]: 5.6
- PRISMA enrichment of interactor (log2) [15]: 4.48
- PRISMA enrichment of interactor (log2) [16]: 3.65
- PRISMA enrichment of interactor (log2) [17]: 3.6
- PRISMA enrichment of interactor (log2) [18]: 4.65
- PRISMA enrichment of interactor (log2) [19]: 4.23
- PRISMA enrichment of interactor (log2) [20]: 4.51
- PRISMA enrichment of interactor (log2) [21]: 4.3
- PRISMA enrichment of interactor (log2) [22]: 3.91
- PRISMA enrichment of interactor (log2) [23]: 3.47
- PRISMA enrichment of interactor (log2) [24]: 5.63

Binder: GRKQRRPSASCTFGG [LINC01560]
- PRISMA enrichment of interactor (log2) [25]: 4.73
- PRISMA enrichment of interactor (log2) [26]: 3.97
- PRISMA enrichment of interactor (log2) [27]: 4.76
- PRISMA enrichment of interactor (log2) [28]: 4.09
- PRISMA enrichment of interactor (log2) [29]: 4.81
- PRISMA enrichment of interactor (log2) [30]: 4.71
- PRISMA enrichment of interactor (log2) [31]: 4.78
- PRISMA enrichment of interactor (log2) [32]: 4.47
- PRISMA enrichment of interactor (log2) [33]: 4.86
- PRISMA enrichment of interactor (log2) [34]: 4.05
- PRISMA enrichment of interactor (log2) [35]: 4.97
- PRISMA enrichment of interactor (log2) [36]: 4.41
- PRISMA enrichment of interactor (log2) [37]: 7.47
- PRISMA enrichment of interactor (log2) [38]: 4.26
- PRISMA enrichment of interactor (log2) [39]: 4.34
- PRISMA enrichment of interactor (log2) [40]: 5.18

Binder: LEWFKYVLGIPVYRL
- PRISMA enrichment of interactor (log2) [1]: 6.36
- PRISMA enrichment of interactor (log2) [41]: 6.2
- PRISMA enrichment of interactor (log2) [42]: 4.07
- PRISMA enrichment of interactor (log2) [43]: 4.52
